Here are results for 33 sequences from paper PMC7862700.

Common to all, as to assay: DAPPL (digital affinity profiling via proximity ligation, sequencing)
Holding throughout (conditions): 10 mM Tris-HCl pH 7.5, 50 mM NaCl, 1 mM DTT, 4% glycerol, room temperature, 30 min; GST-TFs on glutathione beads, 16-mer random dsDNA library, 0.1% …; high values mean tight binding; double strand, one strand shown; scale: fold enrichment (6-mer frequency, TF over GST control)

The target in experiment [1] is T1, ELK1 (UniProt P19419).
T1 sequence: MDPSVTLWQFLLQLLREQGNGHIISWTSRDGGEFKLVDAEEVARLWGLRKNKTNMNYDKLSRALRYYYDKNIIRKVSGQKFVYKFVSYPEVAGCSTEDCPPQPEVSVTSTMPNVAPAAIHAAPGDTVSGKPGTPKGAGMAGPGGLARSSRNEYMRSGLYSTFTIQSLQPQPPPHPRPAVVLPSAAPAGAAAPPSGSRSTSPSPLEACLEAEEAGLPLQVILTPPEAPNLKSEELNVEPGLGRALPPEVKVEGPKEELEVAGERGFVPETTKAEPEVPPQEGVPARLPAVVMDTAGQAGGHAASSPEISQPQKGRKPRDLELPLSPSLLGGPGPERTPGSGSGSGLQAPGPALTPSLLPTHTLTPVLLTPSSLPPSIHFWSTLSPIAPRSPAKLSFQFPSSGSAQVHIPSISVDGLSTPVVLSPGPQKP

The target in experiment [2] is T2, ELK3 (UniProt P41970).
T2 sequence: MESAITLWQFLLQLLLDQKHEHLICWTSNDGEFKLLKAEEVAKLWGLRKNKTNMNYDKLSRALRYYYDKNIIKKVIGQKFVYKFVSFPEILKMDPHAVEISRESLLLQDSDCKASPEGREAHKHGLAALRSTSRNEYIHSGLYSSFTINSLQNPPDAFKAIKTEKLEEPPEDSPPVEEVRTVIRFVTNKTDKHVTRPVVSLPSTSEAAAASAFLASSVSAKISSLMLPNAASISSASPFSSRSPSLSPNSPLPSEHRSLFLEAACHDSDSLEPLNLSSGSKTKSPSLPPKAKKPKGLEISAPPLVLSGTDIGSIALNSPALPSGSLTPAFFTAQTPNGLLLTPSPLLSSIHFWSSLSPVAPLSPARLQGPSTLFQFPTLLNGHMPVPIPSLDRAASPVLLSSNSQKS

The target of experiment [3] is T3, SPIC (UniProt Q8N5J4).
T3 sequence: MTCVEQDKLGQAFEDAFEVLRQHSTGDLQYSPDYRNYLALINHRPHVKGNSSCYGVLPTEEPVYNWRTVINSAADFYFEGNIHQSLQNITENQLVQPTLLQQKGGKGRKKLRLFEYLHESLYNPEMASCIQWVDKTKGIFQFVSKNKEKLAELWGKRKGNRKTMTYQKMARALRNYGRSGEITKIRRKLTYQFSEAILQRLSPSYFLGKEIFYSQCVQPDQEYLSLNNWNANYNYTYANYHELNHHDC

For experiment [4], the target named is T4, ETS2 (UniProt P15036).
T4 sequence: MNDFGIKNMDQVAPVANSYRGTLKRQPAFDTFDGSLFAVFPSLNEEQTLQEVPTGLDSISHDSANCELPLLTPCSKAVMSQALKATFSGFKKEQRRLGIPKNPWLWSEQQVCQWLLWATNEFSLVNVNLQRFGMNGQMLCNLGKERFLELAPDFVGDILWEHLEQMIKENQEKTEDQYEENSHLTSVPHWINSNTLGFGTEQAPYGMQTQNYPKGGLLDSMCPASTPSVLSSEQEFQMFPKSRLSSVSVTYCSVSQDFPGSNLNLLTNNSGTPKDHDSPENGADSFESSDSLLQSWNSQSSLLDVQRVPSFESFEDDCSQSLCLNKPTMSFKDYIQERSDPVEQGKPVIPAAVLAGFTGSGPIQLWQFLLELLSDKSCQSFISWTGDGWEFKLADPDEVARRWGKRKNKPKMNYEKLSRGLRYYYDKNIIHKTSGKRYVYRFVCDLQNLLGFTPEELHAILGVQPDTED

For experiment [5], the target named is T5, ETV3 (UniProt P41162-2).
T5 sequence: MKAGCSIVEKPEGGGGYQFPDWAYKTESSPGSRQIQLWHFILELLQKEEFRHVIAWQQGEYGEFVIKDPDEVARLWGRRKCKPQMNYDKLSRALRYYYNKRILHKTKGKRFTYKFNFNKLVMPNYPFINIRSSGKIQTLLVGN

The list shows a part of the results, in another mix than the full data. At the low end of the ranking, values are background and their order means little.

Regarding CCAGGG, the binding signal was determined as 0.579 in experiment [1]; 0.585 in experiment [2]; 0.536 in experiment [3]; 0.593 in experiment [4]; 0.522 in experiment [5].
Turning to GGAGCA, the binding signal in experiment [1] stood at 0.468; in experiment [2], 0.452; in experiment [3], 0.443; in experiment [4] it was 0.434; in experiment [5] it was 0.439.
Consider AGAGGC, for which the binding signal was determined as 0.676 in experiment [1]; 0.697 in experiment [2]; 0.906 in experiment [3]; 0.729 in experiment [4]; 0.662 in experiment [5].
Turning to GGCCCG, the binding signal in experiment [1] came out at 0.794; in experiment [2] it was 0.749; in experiment [3], 0.75; in experiment [4], 0.795; in experiment [5], 0.751.
As for AGGGGA, the binding signal in experiment [1] came out at 0.58; in experiment [2], 0.634; in experiment [3], 0.622; in experiment [4] it was 0.651; in experiment [5], 0.63.
In the same order, the values of CGTGTC are 0.813, 0.805, 0.801, 0.76 and 0.834.
CGCAAG: the binding signal in experiment [1] worked out at 0.826; in experiment [2] it was 0.809; in experiment [3] it was 0.893; in experiment [4] it was 0.899; in experiment [5] it was 0.824.
As for GTAGTG, the binding signal in experiment [1] is 0.829; in experiment [2] it was 0.817; in experiment [3], 0.763; in experiment [4], 0.828; in experiment [5], 0.872.
Take GTGGGT: the binding signal is 0.536 in experiment [1]; 0.438 in experiment [2]; 0.525 in experiment [3]; 0.537 in experiment [4]; 0.434 in experiment [5].
For TAGAGT, the binding signal worked out at 0.813 in experiment [1]; 0.839 in experiment [2]; 0.659 in experiment [3]; 0.769 in experiment [4]; 0.778 in experiment [5].
As for GTAGAG, the binding signal in experiment [1] came to 0.586; in experiment [2] it was 0.554; in experiment [3], 0.67; in experiment [4] it was 0.571; in experiment [5], 0.577.
As for GGTGCA, the binding signal was 0.833 in experiment [1]; 0.813 in experiment [2]; 0.728 in experiment [3]; 0.824 in experiment [4]; 0.949 in experiment [5].
Consider AGAGTT, for which the binding signal in experiment [1] stood at 0.872; in experiment [2], 0.783; in experiment [3], 0.667; in experiment [4], 0.838; in experiment [5] it was 0.771.
As to GAGACG, the binding signal in experiment [1] amounted to 0.315; in experiment [2], 0.342; in experiment [3] it was 0.362; in experiment [4], 0.336; in experiment [5], 0.316.
For TCGGGA, in that order: 0.402, 0.455, 0.384, 0.38 and 0.39.
Turning to AGGCGC, the binding signal in experiment [1] amounted to 0.546; in experiment [2], 0.564; in experiment [3] it was 0.605; in experiment [4] it was 0.575; in experiment [5], 0.522.
In the case of AGACGA, the binding signal in experiment [1] turned out to be 0.642; in experiment [2] it was 0.709; in experiment [3], 0.694; in experiment [4], 0.765; in experiment [5], 0.626.
For TGAGTG, in that order: 0.446, 0.463, 0.548, 0.474 and 0.495.
For GAGGTA, the binding signal is 0.746 in experiment [1]; 0.633 in experiment [2]; 0.461 in experiment [3]; 0.646 in experiment [4]; 0.693 in experiment [5].
In the case of ACCGAG, the binding signal in experiment [1] came to 0.743; in experiment [2], 0.707; in experiment [3], 0.826; in experiment [4] it was 0.777; in experiment [5] it was 0.691.
As to CAGCGA, the binding signal came to 0.894 in experiment [1]; 0.8 in experiment [2]; 0.976 in experiment [3]; 0.869 in experiment [4]; 0.818 in experiment [5].
As to AGGGTA, the binding signal in experiment [1] was found to be 0.854; in experiment [2] it was 0.876; in experiment [3], 0.905; in experiment [4] it was 0.877; in experiment [5] it was 0.843.
For the sequence CGGGGT, the binding signal in experiment [1] came out at 0.573; in experiment [2], 0.613; in experiment [3] it was 0.671; in experiment [4], 0.675; in experiment [5], 0.639.
Consider AGCCTG, for which the binding signal in experiment [1] was 0.947; in experiment [2] it was 0.734; in experiment [3] it was 0.659; in experiment [4], 0.813; in experiment [5] it was 0.913.
For the sequence TCAGGT, the binding signal in experiment [1] turned out to be 0.886; in experiment [2], 0.79; in experiment [3], 0.775; in experiment [4], 0.925; in experiment [5], 0.862.
As for TGGGGA, the binding signal was found to be 0.841 in experiment [1]; 0.718 in experiment [2]; 0.915 in experiment [3]; 0.79 in experiment [4]; 0.785 in experiment [5].
For TGAGCC, in that order: 0.845, 0.801, 0.896, 0.893 and 0.895.
As for CCCAGT, the binding signal in experiment [1] came out at 0.64; in experiment [2], 0.65; in experiment [3], 0.609; in experiment [4] it was 0.606; in experiment [5] it was 0.609.
As to GCGGTC, the binding signal turned out to be 0.564 in experiment [1]; 0.67 in experiment [2]; 0.596 in experiment [3]; 0.64 in experiment [4]; 0.643 in experiment [5].
With GAGTTG, the binding signal in experiment [1] turned out to be 0.525; in experiment [2], 0.522; in experiment [3] it was 0.44; in experiment [4] it was 0.468; in experiment [5], 0.494.
For the sequence AAGTCG, the binding signal in experiment [1] turned out to be 0.531; in experiment [2], 0.525; in experiment [3] it was 0.558; in experiment [4] it was 0.49; in experiment [5], 0.463.
For GGGGCA, in that order: 0.745, 0.679, 0.675, 0.692 and 0.601.
As to GGGTCC, the binding signal in experiment [1] worked out at 0.789; in experiment [2] it was 0.717; in experiment [3], 0.804; in experiment [4], 0.852; in experiment [5] it was 0.783.
